This list was built around the results that the source calls inconclusive (neither active nor inactive); the mix of calls is not that of the screen. Potencies of inconclusive entries are doubtful fits and often do not repeat. The source holds several records for some structures; these can differ, active in one and inactive in another. The source made the active and inactive calls. The calls were made as follows: active = hit-call score of the fitted dose curve at least 0.9, where 1 is the maximum; inconclusive = response in the unintended direction; inactive = score below 0.9.
Target: Retinoic acid receptor alpha (Homo sapiens) (UniProt P10276)
Assay: ATG_RARa_TRANS: Attagene TRANS-FACTORIAL HepG2 Assay for human Retinoic Acid Receptor alpha (RARa) (AID 2283005);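 as to AC50: potency for increased reporter signal meaning RARa activation over DMSO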
Experimental: ATG_TRANS is a cell-based, multiplexed-readout assay that uses HepG2, a human liver cell line, with measurements taken at 24 hours after chemical dosing in a 24-well plate.ATG_RARa_TRANS is one of 30 assay component(s) measured or calculated from the ATG_TRANS assay. It is designed to make measurements of mRNA induction, a form of inducible reporter, as detected with fluorescence intensity signals by Reverse transcription polymerase chain reaction (RT-PCR) and Capillary electrophoresis technology.Data from the assay component ATG_RARa_TRANS was analyzed into 1 assay endpoint. This assay endpoint, ATG_RARa_TRANS, was analyzed in the positive analysis fitting direction relative to DMSO as the negative control and baseline of activity. Using a type of inducible reporter, measures of mRNA for gain-of-signal activity can be used to understand the reporter gene at the transcription factor-level as they relate to the gene RARA. Furthermore, this assay endpoint can be referred to as a primary readout, because this assay has produced multiple assay endpoints where this one serves a reporter gene function. To generalize the intended target to other relatable targets, this assay endpoint is annotated to the nuclear receptor intended target family, where the subfamily is non-steroidal.
Human liver HepG2 cells are transiently transfected with multiple reporter transcription units (MRTUs) in 6-well plates using FuGene 6 reagent (Roche; 3 ml FuGene/1 mg DNA). The MRTU constructs are regulated by a cis-regulating element (promoter). […] A major difference between the CIS and TRANS system is that in CIS activities of endogenous TFs are measured, whereas the TRANS assay evaluates changes in activities of exogenous, chimeric NR-Gal4 proteins. […] At the end of 24 hour incubation, total RNA was isolated using TriZol reagent (Invitrogen). The isolated RNA is then reverse-transcribed using oligo(dT) primer and Mo-MLV reverse transcriptase (Invitrogen) with DNAse I (Ambion) treatment for 30 min. The one-tenth of the produced cDNA was amplified by PCR using Taq DNA polymerase (Invitrogen) and two reporter sequence-specific primers. The PCR products were fluorescently labeled by primer extension with 6-arboxyfluorescein (6-FAM) 5'-labeled reporter sequence-specific primer (2 min at 95 C, 20 s at 68 C and 10 min at 72 C) and these products were digested with 5U of HpaI (New England Biolabs) for 2h at 37 C. The fragments were purified using Qiaquick PCR columns (Qiagen), analyzed on an ABI 3130xL genetic analyzer (Applied Biosystems) with peak positions identified by using a set of X-rhodamine (ROX)-labeled MapMarker1000 molecular weight standards (BioVentures). The raw capillary electrophoresis data was processed using Attagraph software (Attagene).

Chains of the proteins cited; added tags and fusions are not shown.
UniProt P10276, whole entry, looked up: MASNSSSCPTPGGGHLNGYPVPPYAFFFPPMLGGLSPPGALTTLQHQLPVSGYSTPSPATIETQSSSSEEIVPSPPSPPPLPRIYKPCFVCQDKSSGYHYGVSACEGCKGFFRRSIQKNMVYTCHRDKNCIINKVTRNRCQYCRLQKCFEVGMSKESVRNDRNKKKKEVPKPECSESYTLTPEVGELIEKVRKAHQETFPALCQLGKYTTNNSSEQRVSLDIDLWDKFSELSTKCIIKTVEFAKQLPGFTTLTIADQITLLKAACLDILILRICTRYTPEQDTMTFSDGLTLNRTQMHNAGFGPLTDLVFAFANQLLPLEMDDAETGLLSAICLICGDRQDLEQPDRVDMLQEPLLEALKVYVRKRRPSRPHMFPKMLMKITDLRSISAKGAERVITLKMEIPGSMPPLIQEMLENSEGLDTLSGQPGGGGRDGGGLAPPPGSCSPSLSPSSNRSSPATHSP

| Structure (SMILES) | outcome | AC50 |
| --- | --- | --- |
| NC(=S)Nc1ccccc1 | inactive |  |
| O=C(O)C(F)(F)C(F)(F)C(F)(F)C(F)(F)C(F)(F)C(F)(F)C(F)(F)C(F)(F)C(F)(F)C(F)(F)F | inactive |  |
| O=C(NCNC(=O)NC1C(=O)NC(=O)N1CO)NC1C(=O)NC(=O)N1CO (stereo not given) | inactive |  |
| CCCC1COC(Cn2cncn2)(c2ccc(Cl)cc2Cl)O1 (stereo not given) | inactive | active: 23 µM |
| CC1=NNC(=O)N(/N=C/c2cccnc2)C1 | inactive |  |
| C=CCc1ccc(OC(=O)Cc2ccccc2)c(OC)c1 |  | inconclusive: 100 µM |
| CCCSP(=S)(OCC)Oc1ccc(Cl)cc1Cl (stereo not given) |  | inconclusive: 65.6 µM |
| CCOP(=S)(OCC)Oc1ccc(Cl)cc1Cl |  | inconclusive: 160 µM |
| [O-][Cl+]O |  | inconclusive: 100 µM |
| C#CC1(O)CCCCC1 |  | inconclusive: 19.9 µM |
| Clc1ccccc1Cl |  | inconclusive: 15.4 µM |
| CCC(=O)Nc1ccc(Cl)c(Cl)c1 | inactive |  |
| OCCCl | inactive |  |
| CC(C)C#N | inactive |  |
| CCCOc1nn(C(=O)NS(=O)(=O)c2ccccc2C(=O)OC)c(=O)n1C |  | inconclusive: 50 µM |
| CCCCN(CCCC)C(=S)[S-].CCCCN(CCCC)C(=S)[S-].[Ni+2] | inactive |  |

A different layout for part of the listing above.
Structure (SMILES)	outcome	AC50
CC1=NNC(=O)N(/N=C/c2cccnc2)C1	inactive	
C=CCc1ccc(OC(=O)Cc2ccccc2)c(OC)c1		inconclusive: 100 µM

Going on with the list.

| Structure (SMILES) | outcome | AC50 |
| --- | --- | --- |
| c1ccc(NNc2ccccc2)cc1 |  | inconclusive: 39 µM |
| CC(C)C(C)(N)C#N (stereo not given) | inactive |  |
| Nc1ncc([N+](=O)[O-])s1 |  | inconclusive: 21.1 µM |
| Cl[C@H]1OCCO[C@@H]1Cl |  | inconclusive: 100 µM |
| c1cc2ccc3cccc4ccc(c1)c2c34 | inactive |  |
| N#CSCSC#N | inactive |  |
| C=C(Cl)CCl |  | inconclusive: 100 µM |
| Clc1ccc(Oc2ccccc2)cc1 |  | inconclusive: 169 µM |
| Brc1c(Br)c(Br)c(Oc2c(Br)c(Br)c(Br)c(Br)c2Br)c(Br)c1Br | inactive |  |
| Cc1cccc(N)c1N | inactive |  |
| CN(N=O)c1ccc([N+](=O)[O-])cc1 |  | inconclusive: 21.2 µM |
| c1cc[c]([Sb]([c]2ccccc2)[c]2ccccc2)cc1 |  | inconclusive: 44.5 µM |
| CC1(C)COP(Oc2ccccc2)OC1 |  | inconclusive: 100 µM |
| CCNc1nc(NC(C)(C)C)nc(SC)n1 |  | inconclusive: 159 µM |
| CCOP(=S)(OCC)OC(Cl)C(Cl)(Cl)Cl (stereo not given) | inactive |  |
| Clc1ccc(C(Cl)(Cl)Cl)cn1 |  | inconclusive: 100 µM |
| CCOC(=O)OC1=C(c2cc(C)ccc2C)C(=O)NC12CCC(OC)CC2 (stereo not given) |  | inconclusive: 178 µM |

— PubChem BioAssay (EPA / NIEHS)
